Values joined by “and” are separate entries in the source; they are usually repeats but may differ in a detail not shown here. Identical values can stand only once.
What was measured:
human bronchial rings = experiment: Wire myograph bronchodilation of histamine pre-contracted human bronchial rings (Biopta); settings: average
Source text: Details of bronchodilator studies shown in Figure 5H, 6 and Supplementary Figure 40 are provided below as part of the end assay report on Study CUR011 by Lee Christie (Biopta). Donors with any of the following conditions were excluded from the study: asthma, COPD, emphysema, lung cancer, cystic fibrosis, pulmonary fibrosis, pulmonary hypertension, pneumonia. Donors were also excluded if they had smoked in the past 12 months. Non-transplantable lung tissue was acquired from organ donors post mortem. Any macroscopically diseased/necrotic tissue was rejected. […] Human airway rings were set up under isometric conditions on a wire myograph in order to examine the influence of the test articles on bronchodilation. In order to assess tissue viability, the airways were challenged with carbachol (10 μM) and then isoprenaline (10 μM) to assess their constriction and relaxation responses, respectively. […] Viable airways were pre-constricted with histamine (10 μM), then exposed to one of the following cumulative concentration response curves (CCRCs): positive control, vehicle (water, volume matched to positive control), test article, vehicle (DMSO concentration matched to test articles). At the end of each CCRC, theophylline (2.2 mM) was added to induce maximal relaxation of the tissue. […]

mouse tracheal rings = experiment: Wire myograph bronchodilation of carbachol pre-contracted mouse tracheal rings
Method: The trachea from C57 BL/6 mice was dissected and collected in PBS with Mg^2+ and Ca^2+. After further trimming, two 2 mm sections (rings) per trachea were then placed in DMEM media containing PSG/HEPES/AA/NaPyr for 1 h and used immediately or maintained overnight at 37°C in a humidified incubator with 5% CO2. Rings were then mounted into chambers of DMT wire myograph containing L-shaped mounting pins with 2–3 mN of force applied to secure rings on the pins and the rings were allowed to equilibrate for 25–30 min in a physiological saline buffer (PSS, 130 mM NaCl, 4.7 mM KCl, 1.2 mM MgS04, 14.9 mM NaHCO3, 1.2 mM KH2PO4, 0.026 mM EDTA, 1.6 mM CaCl2, 5.5 mM Dextrose). Throughout the experiment, rings were maintained at physiological temperature and gas conditions by heating buffer reservoir and chamber to 37°C and bubbling a 95% O2, 5% CO2 gas mixture into chamber.
After equilibration, a standard tissue “Wake-Up” procedure was applied by altering tension and then treatment with elevated potassium as follows: 3 mN tension was applied for 5–10 min, then another 2–3 mN tension to total of 5.5 mN and then to 7–8 mN for another 5 min; the tissue pre-tension was then set to 5 mN and allowed to equilibrate for 5–10 min followed by the removal of the PSS buffer and addition of KPSS (60 mM KCl, 74.7 mM NaCl in PSS solution), with force changes monitored until they reached a plateau. […]

SMILES	Hill Slope, relaxation of histamine pre-contracted human bronchial rings (human bronchial rings)	Hill Slope, individual experiments (mouse tracheal rings; EC75 carbachol, Exp 1-3)	Hill Slope, relaxation of mouse tracheal rings (mouse tracheal rings; pre-contracted with EC75 carbachol, average)
COc1cc([N+](=O)[O-])ccc1NC(=O)c1cc(Cl)c2ccccc2c1O [Cpd 4]	4.0	–	–
CC(C)NCC(O)c1ccc(O)c(O)c1 (stereo not drawn) [Isoproterenol, isoproterenol]	–	0.8 and 0.9 (2×)	0.9

From PMC6382696, “Drug Repurposing: The Anthelmintics Niclosamide and Nitazoxanide Are Potent TMEM16A Antagonists That Fully Bronchodilate Airways” (Frontiers in Pharmacology, 2019)
